# The supplement of paper PMC8728848
# Some of the results follow.
# B1: SJCP3842 (Schistosoma japonicum) (protein)
# chain: MFKMRIINLVNISTVLLLINLLQTKSRLVGKENGFMLTVSIYGAQLSDKMTSVPVSWTIDYEDPEKSAFKKLVTDSCDTFSEYVKSQIPKGSVDGQCTSHIFQRPGSGSGVSISLTLSFIYVDVTQPDTVALKTELEKHFANFVTIHSHKITQAQFRINQKAIVIPTGDKDAIDGSKWKIIAIIALVALAIVVIGGFIYICVK
# Legend:
# Experiment in all cases: glycan array binding signal (z-score within array); higher = stronger binding
# Conditions in all cases: glycan notation: IUPAC condensed, linker removed
# Fuc(a1-2)Gal = molecular target: Fuc(a1-2)Gal
# Outline: (§1)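 From the Consortium for Functional Glycomics database, 3228 arrays were curated, keeping only those whose protein sequence was available. Binding is given as a within-array Z-score averaged across arrays sharing a protein sequence and across linkers. Negative Z-scores can be read as non-binding.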
# Fuc(a1-2)Gal(b1-3)GalNAc = molecular target: Fuc(a1-2)Gal(b1-3)GalNAc
# Outline: as §1
# [1] = molecular target: Fuc(a1-2)Gal(b1-3)GalNAc(a1-3)[Fuc(a1-2)]Gal(b1-4)Glc
# Outline: as §1
# [2] = molecular target: Fuc(a1-2)Gal(b1-3)GalNAc(a1-3)[Fuc(a1-2)]Gal(b1-4)GlcNAc
# Outline: as §1
# [3] = molecular target: Fuc(a1-2)Gal(b1-3)GalNAc(b1-3)Gal
# Outline: as §1
# [4] = molecular target: Fuc(a1-2)Gal(b1-3)GalNAc(b1-3)Gal(a1-4)Gal(b1-4)Glc
# Outline: as §1
# [5] = molecular target: Fuc(a1-2)Gal(b1-3)GalNAc(b1-4)[Neu5Ac(a2-3)]Gal(b1-4)Glc
# Outline: as §1
# Fuc(a1-2)Gal(b1-3)GlcNAc = molecular target: Fuc(a1-2)Gal(b1-3)GlcNAc
# Outline: as §1
# [6] = molecular target: Fuc(a1-2)Gal(b1-3)GlcNAc(b1-2)Man(a1-3)[Fuc(a1-2)Gal(b1-3)GlcNAc(b1-2)Man(a1-6)]Man(b1-4)GlcNAc(b1-4)GlcNAc
# Outline: as §1
# [7] = molecular target: Fuc(a1-2)Gal(b1-3)GlcNAc(b1-2)Man(a1-3)[Fuc(a1-2)Gal(b1-3)GlcNAc(b1-2)Man(a1-6)]Man(b1-4)GlcNAc(b1-4)[Fuc(a1-6)]GlcNAc
# Outline: as §1
# [8] = molecular target: Fuc(a1-2)Gal(b1-3)GlcNAc(b1-3)Gal(b1-4)Glc
# Outline: as §1
# [9] = molecular target: Fuc(a1-2)Gal(b1-3)GlcNAc(b1-3)GalNAc
# Outline: as §1
# [10] = molecular target: Fuc(a1-2)Gal(b1-3)GlcNAc(b1-3)[Fuc(a1-2)Gal(b1-3)GlcNAc(b1-6)]GalNAc
# Outline: as §1
# [11] = molecular target: Fuc(a1-2)Gal(b1-3)GlcNAc(b1-3)[Gal(b1-4)GlcNAc(b1-6)]Gal(b1-4)Glc
# Outline: as §1
# [12] = molecular target: Fuc(a1-2)Gal(b1-3)GlcNAc(b1-3)[Neu5Ac(a2-6)Gal(b1-4)GlcNAc(b1-6)]Gal(b1-4)Glc
# Outline: as §1
# [13] = molecular target: Fuc(a1-2)Gal(b1-3)GlcNAc6S
# Outline: as §1
# [14] = molecular target: Fuc(a1-2)Gal(b1-3)[Fuc(a1-4)]GlcNAc
# Outline: as §1
# [15] = molecular target: Fuc(a1-2)Gal(b1-3)[Fuc(a1-4)]GlcNAc(b1-2)Man(a1-3)[Fuc(a1-2)Gal(b1-3)[Fuc(a1-4)]GlcNAc(b1-2)Man(a1-3)]Man(b1-4)GlcNAc(b1-4)GlcNAc
# Outline: as §1
# [16] = molecular target: Fuc(a1-2)Gal(b1-3)[Fuc(a1-4)]GlcNAc(b1-2)Man(a1-3)[Fuc(a1-2)Gal(b1-3)[Fuc(a1-4)]GlcNAc(b1-2)Man(a1-6)]Man(b1-4)GlcNAc(b1-4)[Fuc(a1-6)]GlcNAc(b1-4)[Fuc(a1-6)]GlcNAc
# Outline: as §1
# [17] = molecular target: Fuc(a1-2)Gal(b1-3)[Fuc(a1-4)]GlcNAc(b1-3)[Fuc(a1-3)[Gal(b1-4)]GlcNAc(b1-6)]Gal(b1-4)Glc
# Outline: as §1
# [18] = molecular target: Fuc(a1-2)Gal(b1-3)[Fuc(a1-4)]GlcNAc(b1-3)[Gal(b1-4)GlcNAc(b1-6)]Gal(b1-4)Glc
# Outline: as §1
# Fuc(a1-2)Gal(b1-4)Glc = molecular target: Fuc(a1-2)Gal(b1-4)Glc
# Outline: as §1
# Fuc(a1-2)Gal(b1-4)Glc6S = molecular target: Fuc(a1-2)Gal(b1-4)Glc6S
# Outline: as §1
# Fuc(a1-2)Gal(b1-4)GlcNAc = molecular target: Fuc(a1-2)Gal(b1-4)GlcNAc
# Outline: as §1
# [19] = molecular target: Fuc(a1-2)Gal(b1-4)GlcNAc(b1-2)Man
# Outline: as §1
# [20] = molecular target: Fuc(a1-2)Gal(b1-4)GlcNAc(b1-2)Man(a1-3)[Fuc(a1-2)Gal(b1-4)GlcNAc(b1-2)Man(a1-6)]Man(b1-4)GlcNAc(b1-4)GlcNAc
# Outline: as §1
# [21] = molecular target: Fuc(a1-2)Gal(b1-4)GlcNAc(b1-2)Man(a1-3)[Fuc(a1-2)Gal(b1-4)GlcNAc(b1-2)Man(a1-6)]Man(b1-4)GlcNAc(b1-4)[Fuc(a1-6)]GlcNAc
# Outline: as §1
# [22] = molecular target: Fuc(a1-2)Gal(b1-4)GlcNAc(b1-2)[Fuc(a1-2)Gal(b1-4)GlcNAc(b1-4)]Man(a1-3)[Fuc(a1-2)Gal(b1-4)GlcNAc(b1-2)Man(a1-6)]Man(b1-4)GlcNAc(b1-4)GlcNAc
# Outline: as §1
# [23] = molecular target: Fuc(a1-2)Gal(b1-4)GlcNAc(b1-3)Gal(b1-4)GlcNAc
# Outline: as §1
# [24] = molecular target: Fuc(a1-2)Gal(b1-4)GlcNAc(b1-3)Gal(b1-4)GlcNAc(b1-2)Man(a1-3)[Fuc(a1-2)Gal(b1-4)GlcNAc(b1-3)Gal(b1-4)GlcNAc(b1-2)Man(a1-6)]Man(b1-4)GlcNAc(b1-4)GlcNAc
# Outline: as §1
binder,measurement,setting,value
B1,glycan array binding signal (z-score),Fuc(a1-2)Gal,0.195
same,glycan array binding signal (z-score),Fuc(a1-2)Gal(b1-3)GalNAc,-0.559
same,glycan array binding signal (z-score),[1],-1.25
same,glycan array binding signal (z-score),[2],-0.925
same,glycan array binding signal (z-score),[3],1.77
same,glycan array binding signal (z-score),[4],1.17
same,glycan array binding signal (z-score),[5],0.207
same,glycan array binding signal (z-score),Fuc(a1-2)Gal(b1-3)GlcNAc,-0.114
same,glycan array binding signal (z-score),[6],0.876
same,glycan array binding signal (z-score),[7],0.431
same,glycan array binding signal (z-score),[8],-1.06
same,glycan array binding signal (z-score),[9],-0.677
same,glycan array binding signal (z-score),[10],-0.394
same,glycan array binding signal (z-score),[11],-0.268
same,glycan array binding signal (z-score),[12],-1.58
same,glycan array binding signal (z-score),[13],-0.268
same,glycan array binding signal (z-score),[14],-0.541
same,glycan array binding signal (z-score),[15],-0.356
same,glycan array binding signal (z-score),[16],1.16
same,glycan array binding signal (z-score),[17],-0.293
same,glycan array binding signal (z-score),[18],0.016
same,glycan array binding signal (z-score),Fuc(a1-2)Gal(b1-4)Glc,0.474
same,glycan array binding signal (z-score),Fuc(a1-2)Gal(b1-4)Glc6S,-0.306
same,glycan array binding signal (z-score),Fuc(a1-2)Gal(b1-4)GlcNAc,-0.756
same,glycan array binding signal (z-score),[19],-1.49
same,glycan array binding signal (z-score),[20],-0.756
same,glycan array binding signal (z-score),[21],0.188
same,glycan array binding signal (z-score),[22],2.03
same,glycan array binding signal (z-score),[23],-0.763
same,glycan array binding signal (z-score),[24],0.382

# Part of the list above, reformatted.
binder	measurement	setting	value
B1	glycan array binding signal (z-score)	[6]	0.876
same	glycan array binding signal (z-score)	[7]	0.431
